Data published in patent US6787320B2, “In vitro methods for determining in vivo thrombotic events” (The Scripps Research Institute, priority 1991, dated 2004).

Assay: Competition ELISA (PMI-1, V43 standard) on cell free urine samples from a normal donor
Set-up: species or system human
Settings: for Equivalents of peptide V43 detectable in the urine using PMI-1: normal donor
Protocol: Assays to detect C-terminal hGPIIb fragment can be performed on “platelet-poor” plasma, serum or urine samples without concentration. Urine (serum and plasma are used in similar fashion) samples were centrifuged at 15,000×g for 5 min at room temp, and the resulting supernatants were collected to form cell free urine samples. The resulting cell-free urine samples are substantially free of platelets and therefore any hGPIIb fragment present in the sample is in the form of soluble, cell-free, hGPIIb fragment. Fifty microliters (ul) of coating solution (0.1M NaHCO3, pH 8.0, 0.1% NaN3) containing 10 ug/ml of isolated GPIIb-IIIa prepared as described in Example 1b were admixed into the wells of flat-bottom 96-well microtiter plates (Immulon 2; Dynatech Laboratories, Chantilly, Va.). The plates were then maintained for 60 minutes at 37° C. to permit the GPIIb-IIIa to adsorb onto the walls of the wells. The coating solution was removed by shaking and 200 ul of blocking solution [5% bovine serum albumin (BSA;w/v) in coating solution] were admixed into each well (solid support) to block excess protein sites.
The wells were maintained for 60 minutes at about 37° C. and then the blocking solution was removed by rinsing the wells thrice with wash buffer (10 mM Tris at pH 7.4, 0.05% (v/v) TWEEN-20, 0.15 M NaCl, and 200 mg/ml merthiolate). […] TAB was obtained from Dr. R. McEver, University of Texas (San Antonio, Tex.). About 50 ul of monoclonal antibody, diluted 1:1 in incubation buffer consisting of 0.1% (w/v) BSA in wash buffer, was admixed, along with the sample to be tested, to each well to form an immunoreaction admixture. The proportions were as follows: […]
Fifty ul of freshly prepared chromogenic substrate solution containing 4.0 mg/ml 0-phenylenediamine and 0.012% (v/v) hydrogen peroxide in CP buffer (243 ml of 0.1 M citric acid and 250 ml of 0.2 M dibasic sodium phosphate per liter H2O, pH 5.0) were then admixed into each well to form a color developing-reaction admixture. After maintaining the color developing-reaction admixture for 10 minutes at about 20 C., 50 ul of 2 N H2SO4 were admixed into each well to stop the developing-reaction, and the resulting solutions were assayed for absorbance at 490 nanometers (nm) light wavelength using a Model 310 ELISA plate reader (Bio-Tek Instruments, Winooski, Vt.).
Absorbance measurements obtained using standard were plotted against micromolar (uM) concentration of standard in the immunoreaction admixture to produce a standard curve. […]

Substance: C-terminal hGPIIb fragment: proteolytic fragment of GPIIb heavy chain, SEQ ID NO 3 residues 173 to 200, about 3900 daltons (PQPPVNPLKVDWGLPIPSPSPIHPAHHK)
- normalized value of C-terminal hGPIIb fragment in undiluted urine (normal donor's urine): 14.4 µM
- Equivalents of peptide V43 detectable in the urine using PMI-1 (urine dilution 1:2): 1.5 µM
- Equivalents of peptide V43 detectable in the urine using PMI-1 (urine dilution 1:4): 3.8 µM
- Equivalents of peptide V43 detectable in the urine using PMI-1 (urine dilution 1:8): 1.5 µM
